Results are given in words; binding and its absence hold for the method and conditions named. In cells and extracts the contact can be indirect. Some results given as binding are weak or reduced against the parent protein; the word gives no strength. Each block holds one binder with its values, some of them ahead of it.
Columns and labels:
Conditions in all cases: remark: other sources report otherwise
[1] = target: T1, Lon (293 cells transiently transfected with plasmid encoding Lon) (human), P36776; assay: co-IP; extracts of 293 cells transiently transfected with Hsp60 and Lon plasmids; IP with anti-Hsp60 and with anti-Lon, western blot
T1 chain: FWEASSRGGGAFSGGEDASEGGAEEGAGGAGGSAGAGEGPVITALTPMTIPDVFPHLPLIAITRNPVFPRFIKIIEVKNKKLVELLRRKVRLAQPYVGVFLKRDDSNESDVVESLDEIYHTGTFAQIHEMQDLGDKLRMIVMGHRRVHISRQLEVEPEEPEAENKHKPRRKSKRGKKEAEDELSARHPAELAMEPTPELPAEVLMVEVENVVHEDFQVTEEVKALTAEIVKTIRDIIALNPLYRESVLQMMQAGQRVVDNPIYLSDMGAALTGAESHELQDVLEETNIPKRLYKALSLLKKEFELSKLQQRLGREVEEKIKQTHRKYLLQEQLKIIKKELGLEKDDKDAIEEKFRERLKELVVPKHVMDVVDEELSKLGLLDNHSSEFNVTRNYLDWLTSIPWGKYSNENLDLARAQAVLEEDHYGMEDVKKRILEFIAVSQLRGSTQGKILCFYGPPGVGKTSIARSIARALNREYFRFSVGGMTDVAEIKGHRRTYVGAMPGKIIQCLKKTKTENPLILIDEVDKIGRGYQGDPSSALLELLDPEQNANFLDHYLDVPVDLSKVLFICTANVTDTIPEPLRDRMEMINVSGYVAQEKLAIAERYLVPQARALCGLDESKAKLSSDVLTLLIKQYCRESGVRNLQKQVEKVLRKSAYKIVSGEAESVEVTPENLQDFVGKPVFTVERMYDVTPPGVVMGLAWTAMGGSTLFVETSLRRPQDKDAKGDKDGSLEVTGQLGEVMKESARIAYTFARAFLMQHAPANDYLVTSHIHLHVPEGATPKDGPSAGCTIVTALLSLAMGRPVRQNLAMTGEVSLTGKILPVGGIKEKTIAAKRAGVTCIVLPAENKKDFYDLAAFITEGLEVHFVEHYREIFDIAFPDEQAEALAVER

[2] = target: T2, endogenous Lon (FADU cells) (human (endogenous in FADU)), P36776; assay: co-IP; FADU cells infected with vector or shRNAs for Hsp60, mtHsp70 or Lon; IP of endogenous proteins with anti-Lon, anti-mtHsp70 or anti-Hsp60, western blot
T2 chain: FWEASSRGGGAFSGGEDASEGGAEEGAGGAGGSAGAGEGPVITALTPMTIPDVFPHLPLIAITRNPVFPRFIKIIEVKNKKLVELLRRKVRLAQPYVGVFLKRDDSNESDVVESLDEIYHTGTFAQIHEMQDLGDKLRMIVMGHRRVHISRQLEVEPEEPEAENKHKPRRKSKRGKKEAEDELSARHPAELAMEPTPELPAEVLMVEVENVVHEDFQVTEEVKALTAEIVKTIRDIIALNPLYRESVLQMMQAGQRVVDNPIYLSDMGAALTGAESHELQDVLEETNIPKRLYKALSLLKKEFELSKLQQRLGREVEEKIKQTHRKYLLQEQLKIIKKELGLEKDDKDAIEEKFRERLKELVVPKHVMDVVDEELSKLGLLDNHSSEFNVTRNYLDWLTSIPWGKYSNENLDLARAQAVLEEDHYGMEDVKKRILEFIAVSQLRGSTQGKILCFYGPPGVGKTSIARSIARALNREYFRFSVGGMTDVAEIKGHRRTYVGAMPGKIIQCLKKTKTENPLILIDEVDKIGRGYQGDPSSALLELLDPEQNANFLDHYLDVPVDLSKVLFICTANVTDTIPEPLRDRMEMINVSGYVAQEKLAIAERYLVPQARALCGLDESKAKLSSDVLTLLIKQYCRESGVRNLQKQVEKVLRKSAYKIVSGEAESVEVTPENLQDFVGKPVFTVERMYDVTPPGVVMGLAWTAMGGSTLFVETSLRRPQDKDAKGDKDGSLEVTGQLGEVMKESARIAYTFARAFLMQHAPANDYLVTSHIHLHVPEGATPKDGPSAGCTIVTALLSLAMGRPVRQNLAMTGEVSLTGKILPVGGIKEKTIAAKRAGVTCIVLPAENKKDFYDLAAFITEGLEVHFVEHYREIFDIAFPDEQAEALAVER

[3] = target: Hsp60 (293 cells transiently transfected with plasmid encoding Hsp60), P10809; assay: co-IP; extracts of 293 cells transiently transfected with Hsp60 and Lon plasmids; IP with anti-Hsp60 and with anti-Lon, western blot

binding [1]: binds
B1: Hsp60 (293 cells transiently transfected with plasmid encoding Hsp60), P10809 27-573 (protein)
chain: AKDVKFGADARALMLQGVDLLADAVAVTMGPKGRTVIIEQSWGSPKVTKDGVTVAKSIDLKDKYKNIGAKLVQDVANNTNEEAGDGTTTATVLARSIAKEGFEKISKGANPVEIRRGVMLAVDAVIAELKKQSKPVTTPEEIAQVATISANGDKEIGNIISDAMKKVGRKGVITVKDGKTLNDELEIIEGMKFDRGYISPYFINTSKGQKCEFQDAYVLLSEKKISSIQSIVPALEIANAHRKPLVIIAEDVDGEALSTLVLNRLKVGLQVVAVKAPGFGDNRKNQLKDMAIATGGAVFGEEGLTLNLEDVQPHDLGKVGEVIVTKDDAMLLKGKGDKAQIEKRIQEIIEQLDVTTSEYEKEKLNERLAKLSDGVAVLKVGGTSDVEVNEKKDRVTDALNATRAAVEEGIVLGGGCALLRCIPALDSLTPANEDQKIGIEIIKRTLKIPAMTIAKNAGVEGSLIVEKIMQSSSEVGYDAMAGDFVNMVEKGIIDPTKVVRTALLDAAGVASLLTTAEVVVTEIPKEEKDPGMGAMGGMGGGMGGGMF

binding [2]: binds
B2: Hsp60 (endogenous, FADU cells), P10809 27-573 (protein)
chain: AKDVKFGADARALMLQGVDLLADAVAVTMGPKGRTVIIEQSWGSPKVTKDGVTVAKSIDLKDKYKNIGAKLVQDVANNTNEEAGDGTTTATVLARSIAKEGFEKISKGANPVEIRRGVMLAVDAVIAELKKQSKPVTTPEEIAQVATISANGDKEIGNIISDAMKKVGRKGVITVKDGKTLNDELEIIEGMKFDRGYISPYFINTSKGQKCEFQDAYVLLSEKKISSIQSIVPALEIANAHRKPLVIIAEDVDGEALSTLVLNRLKVGLQVVAVKAPGFGDNRKNQLKDMAIATGGAVFGEEGLTLNLEDVQPHDLGKVGEVIVTKDDAMLLKGKGDKAQIEKRIQEIIEQLDVTTSEYEKEKLNERLAKLSDGVAVLKVGGTSDVEVNEKKDRVTDALNATRAAVEEGIVLGGGCALLRCIPALDSLTPANEDQKIGIEIIKRTLKIPAMTIAKNAGVEGSLIVEKIMQSSSEVGYDAMAGDFVNMVEKGIIDPTKVVRTALLDAAGVASLLTTAEVVVTEIPKEEKDPGMGAMGGMGGGMGGGMF

binding [3]: binds
B3: Lon (293 cells transiently transfected with plasmid encoding Lon), P36776 68-959 (enzyme)
chain: FWEASSRGGGAFSGGEDASEGGAEEGAGGAGGSAGAGEGPVITALTPMTIPDVFPHLPLIAITRNPVFPRFIKIIEVKNKKLVELLRRKVRLAQPYVGVFLKRDDSNESDVVESLDEIYHTGTFAQIHEMQDLGDKLRMIVMGHRRVHISRQLEVEPEEPEAENKHKPRRKSKRGKKEAEDELSARHPAELAMEPTPELPAEVLMVEVENVVHEDFQVTEEVKALTAEIVKTIRDIIALNPLYRESVLQMMQAGQRVVDNPIYLSDMGAALTGAESHELQDVLEETNIPKRLYKALSLLKKEFELSKLQQRLGREVEEKIKQTHRKYLLQEQLKIIKKELGLEKDDKDAIEEKFRERLKELVVPKHVMDVVDEELSKLGLLDNHSSEFNVTRNYLDWLTSIPWGKYSNENLDLARAQAVLEEDHYGMEDVKKRILEFIAVSQLRGSTQGKILCFYGPPGVGKTSIARSIARALNREYFRFSVGGMTDVAEIKGHRRTYVGAMPGKIIQCLKKTKTENPLILIDEVDKIGRGYQGDPSSALLELLDPEQNANFLDHYLDVPVDLSKVLFICTANVTDTIPEPLRDRMEMINVSGYVAQEKLAIAERYLVPQARALCGLDESKAKLSSDVLTLLIKQYCRESGVRNLQKQVEKVLRKSAYKIVSGEAESVEVTPENLQDFVGKPVFTVERMYDVTPPGVVMGLAWTAMGGSTLFVETSLRRPQDKDAKGDKDGSLEVTGQLGEVMKESARIAYTFARAFLMQHAPANDYLVTSHIHLHVPEGATPKDGPSAGCTIVTALLSLAMGRPVRQNLAMTGEVSLTGKILPVGGIKEKTIAAKRAGVTCIVLPAENKKDFYDLAAFITEGLEVHFVEHYREIFDIAFPDEQAEALAVER

— article PMC4669791
